Source: PMC3390362
Results are given in words; binding and its absence hold for the method and conditions named.

Molecular target: HIV-1 Nef core domain, residues 41-206 (Nef NL4-3) (HIV-1 (NL4-3)) (UniProt P03406)
Test: condition: typically 100 µl of a 150 µg/ml protein solution loaded; SEC; analytical gel filtration, Superdex S75 (10/30), 10 mM Tris/HCl pH 9.0, 100 mM NaCl, 4°C, typically 100 µl of a 150 µg/ml protein solution; Nef core alone; both purified

binding: no binding
Substance: HIV-1 Nef core domain, residues 41-206 (Nef NL4-3) (from UniProt P03406 41-206) (domain or fragment)
